Measurements from PubChem BioAssay AID2417 (National Center for Advancing Translational Sciences (NCATS), 2010).
The campaign covered roughly 140,000 compounds. About 4,300 (3.1%) were called active. Inconclusive means that the source gave no clear call. Such entries were picked first, then a sample of the others.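 How the source made its calls: active means readout at or below -70, meaning at least 70% loss of cells showing the perinucleolar compartment, a nuclear body marking cancer cells; inconclusive means readout between -30 and a set limit; inactive means the rest.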

Experiment: High Content Assay for Compounds that inhibit the Assembly of the Perinucleolar Compartment;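 further: plate controls were DMSO wells for no effect and camptothecin positive control wells for full effect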
Settings: PC3M PTB-GFP, PNC prevalence imaging, 16 h; at 10 µM; stronger effect = lower value
Summary of the method: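 PC3M cells stably expressing PTB-GFP, 750–1000 cells/well, treated 16 h at 37 °C with compound (23 nl of library stock), in duplicate. After paraformaldehyde fixation and Hoechst stain, imaged at 20x; PNC prevalence scored by image analysis.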

Compound | activity change (PNC), negative = inhibition
COc1cccc(-c2noc(Cn3nc(C)c([N+](=O)[O-])c3C)n2)c1 | inactive: 12.6%
CCOc1ccc(Nc2nc(Cc3nnc(SCC(=O)NC4CCCC4)n3C)cs2)cc1 | inconclusive: -35%
Cc1nn(Cc2ccc(Br)cc2)c(C)c1NC(=O)c1nn(C)cc1Cl | inactive: 3.18%
C/C(=C1/C(=O)N(c2ccc([N+](=O)[O-])cc2)N=C1c1ccccc1)N(C)C | inactive: 9.78%
CCOCC(=O)Nc1cccc(Br)c1 | inactive: 24.6%
N#C/C(=N\Nc1ccccc1F)C(=N)N1CCCCC1 | active: -85%
COc1ccc(N(C(=O)c2ccc(Br)o2)C2C=CS(=O)(=O)C2)cc1 (stereo unspecified) | inactive: 59.7%
CN(CCOc1ccccc1)S(=O)(=O)c1ccc2oc3ccccc3c2c1 | inactive: -9.04%
O=C(ONC1=NCCCCC1)c1c(F)cccc1F | inactive: -27.8%
CCOc1ccc(NC(=O)Cn2c(=O)oc3ccccc32)cc1 | inactive: -14.5%
CCn1c(C)c(C(C)=O)c(N2CCCCC2)nc1=S | inactive: -26.1%
Cc1c(C(=O)Nc2ccc(Br)cc2)cnn1C | inconclusive: -36.3%
CN(CC(=O)O)S(=O)(=O)c1ccc(F)cc1 | inconclusive: -42.9%
Cc1nn(C)cc1CNC(=O)c1cccc(Cl)c1 | inconclusive: -32.2%
Cc1ccc(S(=O)(=O)Nc2ccc(S(=O)(=O)N3CCCC3)cc2)cc1 | inconclusive: -46.9%
O=C(CSc1nc2ccc(Cl)cc2o1)NCc1ccc2c(c1)OCO2 | inconclusive: -36.8%
CCNc1nc(NC(C)C)nc(SCCOc2ccc(C)cc2)n1 | inconclusive: -36.2%
CN(CCc1ccccn1)C(=O)Nc1ccc(Cl)cc1 | inconclusive: -33.5%
Clc1cccc(/C(Cc2nc3ccccc3[nH]2)=N\Nc2ccccc2)c1 | inconclusive: -47.5%
Cc1ccc(Nc2nc(-c3sc(NC(=O)c4ccc([N+](=O)[O-])cc4)nc3C)cs2)cc1 | inactive: 63.5%
O=C(NC(=S)Nc1ccc(N2CCOCC2)c(Cl)c1)c1cncc(Br)c1 | inconclusive: -70.9%
C=CCn1c(SCc2nc3c(c(=O)[nH]c(=O)n3CCCC)n2CCC)nnc1-c1ccccc1 | inconclusive: -42.3%
Cc1cccc(S(=O)(=O)c2c(N)n(-c3ccccc3)c3nc4ccccc4nc23)c1 | inconclusive: -43.8%

2 of the compounds above, tab-delimited:
Compound	activity change (PNC), negative = inhibition
CCOc1ccc(Nc2nc(Cc3nnc(SCC(=O)NC4CCCC4)n3C)cs2)cc1	inconclusive: -35%
Cc1nn(Cc2ccc(Br)cc2)c(C)c1NC(=O)c1nn(C)cc1Cl	inactive: 3.18%

Given as comma-separated lines: part of the list above.
Compound,"activity change (PNC), negative = inhibition"
CCOc1ccc(NC(=O)Cn2c(=O)oc3ccccc32)cc1,inactive: -14.5%
CN(CCc1ccccn1)C(=O)Nc1ccc(Cl)cc1,inconclusive: -33.5%
Cc1cccc(S(=O)(=O)c2c(N)n(-c3ccccc3)c3nc4ccccc4nc23)c1,inconclusive: -43.8%

(cont.)

Compound | activity change (PNC), negative = inhibition
O=C(Cc1ccccc1)NC1CCN(C(=O)NCc2ccccc2)CC1 | inconclusive: -55.1%
COc1ccc(COn2c(=O)c(C)[n+]([O-])c3ccccc32)cc1OC | active: -111%
CSCCC1NC2(C(=O)Nc3c(Cl)cccc32)[C@@H]2C(=O)N(C3CCCC3)C(=O)[C@H]12 (stereo partly specified) | inconclusive: -35.5%
CCOC(=O)NNC1CC(=O)N(c2ccccc2)C1=O (stereo unspecified) | inconclusive: -44.5%
C=C(c1ccc(O)cc1)c1ccc(O)cc1 | inconclusive: -67.4%
Cc1cc(F)ccc1S(=O)(=O)Nc1c(C)n(C)n(-c2ccccc2)c1=O | inconclusive: -73.9%
CC1(C)C2CCC1(CS(=O)(=O)N1CCOCC1)C(=O)C2 (stereo unspecified) | inconclusive: -48.8%
CC(C)CC(=O)NC(=S)Nc1cccc(NC(=O)c2ccccc2Cl)c1 | inactive: 14.7%
COc1cc(/C=N/NC(=O)c2ccc(CSc3nc4ccccc4[nH]3)cc2)cc(OC)c1OC | active: -85.4%
COc1ccc2oc(=N)c(-c3nnc4n3CCCCC4)cc2c1 | inactive: -2.76%
CCOC(=O)/C(=N\NC(=O)c1ccccc1)c1ccccc1 | inconclusive: -48.9%
COC(=O)C(Nc1ccccc1Cl)(c1cc(C)c(O)c(C)c1)C(F)(F)F (stereo unspecified) | inconclusive: -62.8%
CCOc1ccccc1-c1cc(C(=O)N/N=C/c2ccc3c(c2)OCO3)c2ccccc2n1 | inconclusive: -45.4%
O=C(Nc1cc2nn(-c3ccccc3)nc2cc1Cl)c1ccco1 | inactive: 39.3%
S=C(NCCN1CCOCC1)N/N=C/c1c2ccccc2cc2ccccc12 | active: -80.8%
COC(=O)Cc1ccc(NC(=O)c2ccc(Br)o2)cc1 | inconclusive: -57.1%
O=C(NCc1ccco1)/C(=C\c1ccco1)NC(=O)c1ccc(Br)o1 | inactive: 13.4%
COc1ccc2c(C)cc(SCc3c(C)noc3C)nc2c1 | active: -111%
Cc1ccc(-c2nc(CS(=O)CC(=O)NCCC(C)C)c(C)o2)cc1 (stereo unspecified) | inconclusive: -30.1%
Cc1ccc(NC2(c3nnnn3-c3c(C)cccc3C)CCCCC2)cc1 | inconclusive: -37.2%
C=C(C(=O)c1ccccc1)C(CC(=O)c1ccccc1)c1ccccc1 (stereo unspecified) | inactive: -21.1%
Cc1ccccc1-c1nc(CS(=O)CC(=O)NCc2ccccc2)c(C)o1 (stereo unspecified) | inconclusive: -32.7%
Cc1ccc(S(=O)(=O)N(CC(=O)N/N=C/c2ccc(F)cc2)c2cccc3cccnc23)cc1 | inconclusive: -65.1%

Compound | activity change (PNC), negative = inhibition
CCC1=Nc2cc(C(=O)NCCCOC)ccc2Sc2ccccc21 | inconclusive: -75%
Cc1ccc(CNC(=O)C2CCCN(S(=O)(=O)c3c(C)noc3C)C2)cc1 (stereo unspecified) | inconclusive: -58%
CCC(=O)Nc1c(C#N)c2nc3ccccc3nc2n1C1CCCCC1 | inconclusive: -32.8%
CCN(CC)CCNC(=O)c1c(O)c2c([nH]c1=O)CCCC2 | inconclusive: -39.3%
CC(=NCCc1c(C)[nH]c2ccc(C)cc12)C1=C(O)CC(c2ccccc2)CC1=O (stereo unspecified) | inconclusive: -62.9%
S=C(NCc1cccnc1)Nc1cccc2ccccc12 | inactive: -7.4%
C=CCn1c(SCC(=O)Nc2sc(C)c(C)c2C(=O)OCC)nnc1-c1sc(N)nc1C | inactive: 16.6%
O=C(Oc1ccc(-c2cnc3ccccc3n2)cc1)c1cc([N+](=O)[O-])ccc1Cl | inactive: -6.5%
O=C(Nc1ccc(Cl)cc1)OCc1cc(-c2ccccc2Cl)on1 | inactive: 105%
CCCN1C(=O)/C(=C/c2ccco2)SC1=Nc1ccc(OC)cc1 | inactive: 27.9%
Cc1ccc(/C=N\NC(=O)C2CN(S(=O)(=O)c3ccccc3)CCN2S(=O)(=O)c2ccccc2)cc1 (stereo unspecified) | inactive: 62.6%
Cc1cc(Nc2cc(C)on2)n2ncnc2n1 | inconclusive: -41.5%
O=C(/C=C/c1cccc(Br)c1)NCC1CCCCC1 | inactive: -13.2%
Cc1ccc2[nH]c(=O)c(C(c3nnnn3C3CCCC3)N(Cc3cccnc3)Cc3ccco3)cc2c1 (stereo unspecified) | inactive: 28.3%
Cn1c(=O)n(CCc2ccccc2)c(=O)c2c1nc1n2CCCN1c1ccccc1 | inconclusive: -38.7%
O=C(COC(=O)c1ccccn1)c1ccc(Br)cc1 | inconclusive: -47.1%
Cc1cccn2c(/C=N/OCc3cccc(F)c3)c(-c3ccc(Cl)cc3)nc12 | inactive: 36.3%
COCCNC(=O)c1ccc2c(c1)nc(C)n2-c1cccc(F)c1 | inconclusive: -39.4%
Cc1cc(OCc2nnc(SCC(=O)OC3CCCCC3)o2)ccc1Cl | inactive: 11.6%
CCOC(=O)C1=C(N)Oc2cc(O)ccc2C1c1cccnc1 (stereo unspecified) | inconclusive: -44.6%
Cc1cccc(NC(=O)C2C3C=CC(C4CC34)C2C(=O)O)c1 (stereo unspecified) | active: -119%
Cc1cccc2nc(-c3cccc(NC(=O)c4ccc(Cl)cc4)c3)cn12 | inactive: 36.7%
O=C(OCc1cccs1)c1ccccc1NS(=O)(=O)c1ccc2c(c1)OCCO2 | inconclusive: -45.3%

Compound | activity change (PNC), negative = inhibition
CCCCNC(=O)CCNS(=O)(=O)c1ccc(Br)cc1 | inactive: 24.5%
O=C(CSCC(=O)NC1CC1)Nc1ccc2ccccc2c1 | inactive: -2.55%
CCOC(=O)c1ccc(N=C2NC(=O)CS2)cc1 | inconclusive: -33.3%
O=C(OCC(=O)c1cccs1)C1=COCCO1 | inconclusive: -69.9%
S=C(c1ccc2c(c1)OCO2)N1CCCC1 | inactive: -10.3%
Cc1ccc(S(=O)(=O)NC(=O)N2CCC(C)CC2)cc1 | inconclusive: -43.1%
O=C(CCSc1ccc(Cl)cc1)N1CCN(c2ncccn2)CC1 | inconclusive: -46.4%
Cc1cc(C)n(-c2ccc(C(=O)OCC(=O)Nc3ccc(Cl)cc3[N+](=O)[O-])cc2)n1 | inconclusive: -43.9%
CCc1nnc(NS(=O)(=O)c2ccc(NS(=O)(=O)c3ccc(NC(C)=O)cc3)cc2)s1 | inconclusive: -76.4%
COc1ccc(CCNC(=O)c2cc(C(=O)c3cc(Cl)ccc3O)cn(CCc3ccc(OC)cc3)c2=O)cc1 | inconclusive: -69.1%
CN(C)CCNc1oc(COc2ccc(-c3ccccc3)cc2)nc1C#N | inconclusive: -30.4%
COc1ccc(C(=O)NC(C)c2nc3ccccc3n2C)cc1OC (stereo unspecified) | inconclusive: -35.8%
O=C(/C=C/c1ccccc1)N1CCC(Cc2ccccc2)CC1 | inactive: -2.88%
Cc1cccc(NC(=O)Cn2cccc2)c1 | inactive: 18.6%
O=C(COc1ccc2c(c1)OCO2)Nc1ccc2c(c1)oc1ccccc12 | inconclusive: -51.9%
Cc1ccc(N=Cc2nc(/C=C/c3cccc([N+](=O)[O-])c3)oc2O)cc1 | inactive: 27.6%
Cc1cc(C(=O)Nc2c(C)nn(Cc3ccc(F)cc3)c2C)on1 | inconclusive: -31.5%
CC1CCCC(NC(=O)COC(=O)CN2C(=O)C3CCCCC3C2=O)C1C (stereo unspecified) | inactive: 14.2%
COC(=O)CCCC(=O)Nc1ccc(Cl)c(Cl)c1 | active: -100%
CSCCC(NC(C)=O)C(=O)Oc1ccc2c3c(c(=O)oc2c1)CCCC3 (stereo unspecified) | inactive: 7.35%
O=C1CN(C(=O)COc2ccc(Br)cc2F)c2ccccc2N1 | inconclusive: -37.2%
COc1cccc(C(=O)NCc2ccccc2OC)c1 | inactive: 23.8%
